{"source": "PubChem BioAssay AID1224830 (NIAID, 2016)", "test": "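Host factors that control LPS-induced TNF expression in human macrophages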 (primary screen)", "cell system": "human THP-1 monocytic leukaemia cells, TNF dual-luciferase reporter clone, PMA-differentiated to macrophage-like cells", "reagents": "siRNA pool against human genes, 50 nM", "time to read-out": "LPS for 4 h, given about 3 days after siRNA transfection", "treatment": "bacterial LPS (TLR4 ligand), 10 ng/ml", "measurement": "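TNF firefly reporter luminescence divided by renilla, normalised to the plate median, then turned into a robust z-score for each replicate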", "scale": "TNF reporter robust z-score: higher = stronger TNF reporter response to LPS", "hit rule": "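Each well counts as active if its z-score is over 2.8 or under -1.5; controls are left without a call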", "note": "Shown is one part, drawn at random, of about 18,000 reagents tested. About 2,900 of all reagents (16%) count as active. 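Calls are made per well; low scores hint the gene aids the LPS response, high scores that it dampens it.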 Repeated entries: four replicate wells of each siRNA pool."}
{"target gene": "IFT70A", "TNF reporter robust z-score": 1.22, "outcome": "inactive"}
{"target gene": "IFT70A", "TNF reporter robust z-score": 1.08, "outcome": "inactive"}
{"target gene": "IFT70A", "TNF reporter robust z-score": 1.54, "outcome": "inactive"}
{"target gene": "IFT70A", "TNF reporter robust z-score": -0.04, "outcome": "inactive"}
{"target gene": "GARIN5A", "TNF reporter robust z-score": 0.58, "outcome": "inactive"}
{"target gene": "GARIN5A", "TNF reporter robust z-score": 0.68, "outcome": "inactive"}
{"target gene": "GARIN5A", "TNF reporter robust z-score": 0.73, "outcome": "inactive"}
{"target gene": "GARIN5A", "TNF reporter robust z-score": 0.08, "outcome": "inactive"}
{"target gene": "ALPK2", "TNF reporter robust z-score": 1.16, "outcome": "inactive"}
{"target gene": "ALPK2", "TNF reporter robust z-score": 0.48, "outcome": "inactive"}
{"target gene": "ALPK2", "TNF reporter robust z-score": 2.03, "outcome": "inactive"}
{"target gene": "ALPK2", "TNF reporter robust z-score": 0.05, "outcome": "inactive"}
{"target gene": "UBXN8", "TNF reporter robust z-score": -0.6, "outcome": "inactive"}
{"target gene": "UBXN8", "TNF reporter robust z-score": 0.32, "outcome": "inactive"}
{"target gene": "UBXN8", "TNF reporter robust z-score": -1.47, "outcome": "inactive"}
{"target gene": "UBXN8", "TNF reporter robust z-score": -0.82, "outcome": "inactive"}
{"target gene": "TYMS", "TNF reporter robust z-score": -0.25, "outcome": "inactive"}
{"target gene": "TYMS", "TNF reporter robust z-score": 0.01, "outcome": "inactive"}
{"target gene": "TYMS", "TNF reporter robust z-score": -0.15, "outcome": "inactive"}
{"target gene": "TYMS", "TNF reporter robust z-score": -0.1, "outcome": "inactive"}
{"target gene": "BRPF1", "TNF reporter robust z-score": 0.68, "outcome": "inactive"}
{"target gene": "BRPF1", "TNF reporter robust z-score": 0.11, "outcome": "inactive"}
{"target gene": "BRPF1", "TNF reporter robust z-score": 1.16, "outcome": "inactive"}
{"target gene": "BRPF1", "TNF reporter robust z-score": 1.83, "outcome": "inactive"}
{"target gene": "SHC4", "TNF reporter robust z-score": -0.31, "outcome": "inactive"}
{"target gene": "SHC4", "TNF reporter robust z-score": 0.52, "outcome": "inactive"}
{"target gene": "SHC4", "TNF reporter robust z-score": -0.45, "outcome": "inactive"}
{"target gene": "SHC4", "TNF reporter robust z-score": 0.3, "outcome": "inactive"}
{"target gene": "ATG2B", "TNF reporter robust z-score": -0.24, "outcome": "inactive"}
{"target gene": "ATG2B", "TNF reporter robust z-score": -0.01, "outcome": "inactive"}
{"target gene": "ATG2B", "TNF reporter robust z-score": -1.35, "outcome": "inactive"}
{"target gene": "ATG2B", "TNF reporter robust z-score": 1.01, "outcome": "inactive"}
{"target gene": "AKR1C3", "TNF reporter robust z-score": -0.56, "outcome": "inactive"}
{"target gene": "AKR1C3", "TNF reporter robust z-score": 0.14, "outcome": "inactive"}
{"target gene": "AKR1C3", "TNF reporter robust z-score": -0.37, "outcome": "inactive"}
{"target gene": "AKR1C3", "TNF reporter robust z-score": 0.17, "outcome": "inactive"}
{"target gene": "CSF1", "TNF reporter robust z-score": -0.81, "outcome": "inactive"}
{"target gene": "CSF1", "TNF reporter robust z-score": 0.07, "outcome": "inactive"}
{"target gene": "CSF1", "TNF reporter robust z-score": -0.72, "outcome": "inactive"}
{"target gene": "CSF1", "TNF reporter robust z-score": -0.51, "outcome": "inactive"}
{"target gene": "CA14", "TNF reporter robust z-score": -0.2, "outcome": "inactive"}
{"target gene": "CA14", "TNF reporter robust z-score": 0.25, "outcome": "inactive"}
{"target gene": "CA14", "TNF reporter robust z-score": 0.29, "outcome": "inactive"}
{"target gene": "CA14", "TNF reporter robust z-score": 1.17, "outcome": "inactive"}
{"target gene": "DCUN1D5", "TNF reporter robust z-score": -0.23, "outcome": "inactive"}
{"target gene": "DCUN1D5", "TNF reporter robust z-score": -0.11, "outcome": "inactive"}
{"target gene": "DCUN1D5", "TNF reporter robust z-score": 0.87, "outcome": "inactive"}
{"target gene": "DCUN1D5", "TNF reporter robust z-score": -0.26, "outcome": "inactive"}
